Results deposited as PubChem BioAssay AID652272 (Drosophila RNAi Screening Center, 2013)
The screen tested about 21,000 reagents; this is an unselected part of those that have a named target and a result. Over the whole deposit, 503 (2.4%) are marked active. 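Raw plate light values, not normalised; calls rest on replicate z-scores that were not deposited; hits include reporter decreases as well as increases.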 A number with no mark means an inactive call. Names joined by + are all predicted targets of the reagent. Reagent sequences are not shown. Not stated in the record: the amount of reagent, the time to read-out.

Screen: 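Genes whose knock-down decreases or increases Hedgehog reporter output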 (primary screen)
System: Drosophila clone 8 (Cl8) cells
Reagents: long dsRNA against Drosophila genes
Read-out: 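Plate reader light from a firefly reporter under a ptc promoter fragment that responds to Hedgehog, with Renilla light as transfection reference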
Reading the numbers: firefly Hh reporter signal: higher = more ptc reporter light; Renilla reference signal: higher = more Renilla control light
Active means: 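Hit when the z-score averaged over two replicates is under -2 or over +3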
Calls: active = hit: reporter lowered or raised; inactive = not a hit

| gene | DRSC id | firefly Hh reporter signal, replicate 1 | firefly Hh reporter signal, replicate 2 | firefly Hh reporter signal, replicate 3 | Renilla reference signal, replicate 1 | Renilla reference signal, replicate 2 |
| --- | --- | --- | --- | --- | --- | --- |
| CG42694 | DRSC03955 | 1.06e5 | 2.64e5 | – | 2725 | 11221 |
| CG13810 | DRSC08344 | 1.56e5 | 66258 | – | 5217 | 5021 |
| CG15249 | DRSC17978 | 1.05e5 | 3.35e5 | – | 3254 | 12490 |
| CR43087 + CR43086 + CG34002 | DRSC11953 | 2.75e5 | – | – | 4736 | – |
| ninaD (neither inactivation nor afterpotential D) | DRSC02886 | 1.04e5 | 73549 | – | 2640 | 5059 |
| CG31265 | DRSC15745 | 59235 | 1.15e5 | – | 1456 | 2648 |
| CCT7 (Chaperonin containing TCP1 subunit 7) | DRSC16410 | 48867 | 92882 | – | 2512 | 2851 |
| Mvd (Mevalonate diphosphate decarboxylase) | DRSC20096 | 95763 | 64604 | – | 2339 | 1604 |
| Tcs5 (Threonyl-carbamoyl synthesis 5) | DRSC09774 | 45572 | 43737 | – | 5744 | 3904 |
| Ipp (Inositol polyphosphate 1-phosphatase) | DRSC16718 | 89585 | 68896 | – | 1078 | 1395 |
| CG3448 | DRSC10368 | 47170 | 45507 | 57604 | 5052 | 4485 |
| hang (hangover) | DRSC19901 | 63129 | 35412 | – | 1330 | 786 |
| hang (hangover) | DRSC19902 | 43377 | 1.33e5 | – | 1377 | 5750 |
| Pgm2a (Phosphoglucomutase 2a) | DRSC07068 | 1.26e5 | 58448 | – | 4858 | 2193 |
| Slc45-1 | DRSC10427 | 50472 | 55723 | – | 2427 | 3725 |
| mRpL28 (mitochondrial ribosomal protein L28) | DRSC02724 | 1.01e5 | 46842 | – | 2568 | 4453 |
| CG16799 | DRSC06626 | 1.64e5 | 82685 | – | 5316 | 6400 |
| spt4 | DRSC07696 | 1.30e5 | 85209 | – | 5148 | 3152 |
| Ald2 (Aldolase 2) | DRSC14730 | 1.51e5 (active) | 19436 | – | 11751 | 768 |
| Ald2 (Aldolase 2) | DRSC15799 | 4.44e5 | 90104 | – | 27162 | 1893 |
| Aef1 (Adult enhancer factor 1) | DRSC11605 | 90688 | 63296 | – | 3232 | 1787 |
| Ufsp1 (UFM1 specific peptidase 1) | DRSC04958 | 1.20e5 | 2.73e5 | – | 3026 | 11488 |
| chico | DRSC03531 | 63760 | 30891 | – | 3186 | 1483 |
| CG9406 | DRSC04552 | 1.35e5 | 54726 | – | 2961 | 2392 |
| PGRP-LC (Peptidoglycan recognition protein LC) | DRSC08980 | 80776 | 1.86e5 | – | 2050 | 7536 |
| PGRP-LC (Peptidoglycan recognition protein LC) | DRSC10416 | 30809 | 68240 | 82538 | 4872 | 5877 |
| PGRP-LC (Peptidoglycan recognition protein LC) | DRSC10417 | 19046 | 38178 | 63909 | 2706 | 3853 |
| RpL36A (Ribosomal protein L36A) | DRSC03055 | 46281 (active) | 22838 | – | 2146 | 3165 |
| porin | DRSC03594 | 1.08e5 | 92653 | – | 4157 | 4093 |
| LysRS (Lysyl-tRNA synthetase) | DRSC17824 | 63088 | 45777 | – | 1716 | 1152 |
| CG14630 | DRSC18166 | 71661 | 1.39e5 | – | 2245 | 5760 |
| CG14630 | DRSC18653 | 69648 | 1.18e5 | – | 2320 | 5538 |
| SC35 (SR family splicing factor SC35) | DRSC02502 | 66010 (active) | 24337 | – | 2332 | 3093 |
| SC35 (SR family splicing factor SC35) | DRSC03425 | 1.66e5 | 69898 | – | 4169 | 6081 |
| CG2065 | DRSC06813 | 1.28e5 (active) | 89384 | – | 2006 | 5315 |
| Nedd8 (Nedd8 ubiquitin like modifier) | DRSC02092 | 82608 | 39079 | – | 1670 | 3365 |
| Cyt-b5 (Cytochrome b5) | DRSC07392 | 1.15e5 | 96269 | – | 3867 | 3243 |
| Unc-115b + p24-2 + Unc-115a | DRSC16502 | 58336 | 1.03e5 | – | 1848 | 3136 |
| CG32537 | DRSC20073 | 1.16e5 | 68387 | – | 2757 | 1659 |

5 entries from above, set out differently:
gene	DRSC id	firefly Hh reporter signal, replicate 1	firefly Hh reporter signal, replicate 2	firefly Hh reporter signal, replicate 3	Renilla reference signal, replicate 1	Renilla reference signal, replicate 2
Pgm2a (Phosphoglucomutase 2a)	DRSC07068	1.26e5	58448		4858	2193
Slc45-1	DRSC10427	50472	55723		2427	3725
mRpL28 (mitochondrial ribosomal protein L28)	DRSC02724	1.01e5	46842		2568	4453
CG16799	DRSC06626	1.64e5	82685		5316	6400
spt4	DRSC07696	1.30e5	85209		5148	3152
